Results are given in words; binding and its absence hold for the method and conditions named. Binding seen in cells or lysates may run through a third protein. These calls come from enrichment with a bait or labelling near it, and not all partners need be listed. For some assays here: A no says only that the protein was not detected with the bait. For some assays here: Sequences can lack the tags named with a protein.

The source of these data is publication PMC10834429, “HRDE-2 drives small RNA specificity for the nuclear Argonaute protein HRDE-1” (Nature Communications, 2024).

Assay [1] has as its target T1, SIMR-1::mCherry::2xHA (C. elegans) (UniProt O01477).
T1 sequence: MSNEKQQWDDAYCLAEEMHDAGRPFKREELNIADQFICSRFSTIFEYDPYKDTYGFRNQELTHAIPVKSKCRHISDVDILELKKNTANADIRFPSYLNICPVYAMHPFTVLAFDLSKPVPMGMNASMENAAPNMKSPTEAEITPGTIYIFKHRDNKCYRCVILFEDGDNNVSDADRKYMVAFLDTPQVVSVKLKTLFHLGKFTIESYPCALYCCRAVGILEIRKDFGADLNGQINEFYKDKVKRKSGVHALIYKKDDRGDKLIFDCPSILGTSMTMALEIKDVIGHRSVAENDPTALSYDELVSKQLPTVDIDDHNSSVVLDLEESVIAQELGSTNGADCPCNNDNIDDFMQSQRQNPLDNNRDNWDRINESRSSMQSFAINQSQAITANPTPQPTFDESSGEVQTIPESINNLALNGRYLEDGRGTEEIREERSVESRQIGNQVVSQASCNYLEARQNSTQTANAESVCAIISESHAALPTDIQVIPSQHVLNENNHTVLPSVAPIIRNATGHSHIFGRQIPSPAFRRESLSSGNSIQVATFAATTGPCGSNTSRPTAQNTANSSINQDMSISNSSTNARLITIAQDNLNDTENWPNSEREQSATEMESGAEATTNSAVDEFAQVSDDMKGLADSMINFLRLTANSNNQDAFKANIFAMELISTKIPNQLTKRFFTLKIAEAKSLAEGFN
Kind of assay: affinity purification with mass spectrometry; lysate of ~200,000 synchronized adult animals, triplicates; anti-HA beads for SIMR-1::mCherry::2xHA, anti-GFP beads for HRDE-2::2xTy1::GFP; IP buffer 50 mM Tris-Cl pH 7.5, 100 mM KCl, 2.5 mM MgCl2, 0.1% Nonidet P40 substitute; 4 °C, 1 h.

The target of assay [2] is T2, HRDE-2::2xTy1::GFP (C. elegans) (UniProt Q22058).
T2 sequence: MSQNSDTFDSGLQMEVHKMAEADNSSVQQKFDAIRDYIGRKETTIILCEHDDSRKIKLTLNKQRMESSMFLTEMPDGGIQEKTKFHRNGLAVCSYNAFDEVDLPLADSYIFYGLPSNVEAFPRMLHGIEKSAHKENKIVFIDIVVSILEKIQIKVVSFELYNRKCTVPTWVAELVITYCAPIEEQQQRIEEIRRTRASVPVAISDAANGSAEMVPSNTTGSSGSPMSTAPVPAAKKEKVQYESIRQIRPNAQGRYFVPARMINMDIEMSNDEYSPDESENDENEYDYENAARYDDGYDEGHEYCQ
The description is as above.

Assay [3] addresses T3, GFP::3xFLAG::HRDE-1(HK-AA) (C. elegans, UniProt Q09249 1-1032, H664A | K668A).
T3 construct: Tag ends are read from the strain notation; Repair template is in Supplementary Data 3; source: C. elegans strain hrde-1(cmp309[HK-AA]) made in hrde-1(tor125[GFP::3xFLAG::hrde-1]), adult animals, in lysate; not shown: GFP, N-terminal, kept; 3xFLAG, N-terminal, kept
T3 sequence (looked up): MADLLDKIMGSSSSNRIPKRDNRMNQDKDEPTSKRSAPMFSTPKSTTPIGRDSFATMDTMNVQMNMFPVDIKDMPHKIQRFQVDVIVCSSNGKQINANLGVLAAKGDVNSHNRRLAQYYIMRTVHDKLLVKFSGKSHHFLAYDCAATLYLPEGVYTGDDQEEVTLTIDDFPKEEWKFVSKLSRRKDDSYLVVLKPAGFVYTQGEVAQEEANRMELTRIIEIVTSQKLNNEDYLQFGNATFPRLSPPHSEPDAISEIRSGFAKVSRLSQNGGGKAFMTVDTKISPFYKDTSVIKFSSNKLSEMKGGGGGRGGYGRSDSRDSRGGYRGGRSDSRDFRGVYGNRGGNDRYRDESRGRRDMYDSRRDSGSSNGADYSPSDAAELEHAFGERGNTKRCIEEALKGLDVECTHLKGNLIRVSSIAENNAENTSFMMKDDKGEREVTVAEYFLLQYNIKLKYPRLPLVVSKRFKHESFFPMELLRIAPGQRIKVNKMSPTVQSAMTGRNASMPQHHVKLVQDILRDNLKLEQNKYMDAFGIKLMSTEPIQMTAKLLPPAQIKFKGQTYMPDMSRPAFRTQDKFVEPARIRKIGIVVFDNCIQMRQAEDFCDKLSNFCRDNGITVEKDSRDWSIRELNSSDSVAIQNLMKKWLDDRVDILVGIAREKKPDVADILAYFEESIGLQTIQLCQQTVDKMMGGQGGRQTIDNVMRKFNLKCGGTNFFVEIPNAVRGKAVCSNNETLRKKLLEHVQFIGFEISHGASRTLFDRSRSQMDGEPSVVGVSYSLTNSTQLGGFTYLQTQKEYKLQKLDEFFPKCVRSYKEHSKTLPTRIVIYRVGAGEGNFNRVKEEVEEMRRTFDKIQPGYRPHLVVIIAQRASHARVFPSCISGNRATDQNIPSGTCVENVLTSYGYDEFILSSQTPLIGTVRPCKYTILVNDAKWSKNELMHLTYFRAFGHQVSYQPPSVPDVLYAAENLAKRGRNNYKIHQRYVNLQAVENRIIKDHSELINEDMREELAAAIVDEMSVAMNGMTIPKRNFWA
The experiment in a line: affinity purification with mass spectrometry; IP of HRDE-1 from wild-type, mut-2 mutant and hrde-1(HK-AA) mutant animals; beads not stated for this IP.

B1: NRDE-3 (protein, UniProt Q21691 1-1057)
chain: MDLLDKVMGEMGSKPGSTAKKPATSASSTPRTNVWGTAKKPSSQQQPPKPLFTTPGSQQGSLGGRIPKREHTDRTGPDPKRKPLGGLSVPDSFNNFGTFRVQMNAWNLDISKMDERISRIMFRATLVHTDGRRFELSLGVSAFSGDVNRQQRRQAQCLLFRAWFKRNPELFKGMTDPAIAAYDAAETIYVGCSFFDVELTEHVCHLTEADFSPQEWKIVSLISRRSGSTFEIRIKTNPPIYTRGPNALTLENRSELTRIIEAITDQCLHNEKFLLYSSGTFPTKGGDIASPDEVTLIKSGFVKTTKIVDRDGVPDAIMTVDTTKSPFYKDTSLLKFFTAKMDQLTNSGGGPRGHNGGRERRDGGGNSRKYDDRRSPRDGEIDYDERTVSHYQRQFQDERISDGMLNTLKQSLKGLDCQPIHLKDSKANRSIMIDEIHTGTADSVTFEQKLPDGEMKLTSITEYYLQRYNYRLKFPHLPLVTSKRAKCYDFYPMELMSILPGQRIKQSHMTVDIQSYMTGKMSSLPDQHIKQSKLVLTEYLKLGDQPANRQMDAFRVSLKSIQPIVTNAHWLSPPDMKFANNQLYSLNPTRGVRFQTNGKFVMPARVKSVTIINYDKEFNRNVDMFAEGLAKHCSEQGMKFDSRPNSWKKVNLGSSDRRGTKVEIEEAIRNGVTIVFGIIAEKRPDMHDILKYFEEKLGQQTIQISSETADKFMRDHGGKQTIDNVIRKLNPKCGGTNFLIDVPESVGHRVVCNNSAEMRAKLYAKTQFIGFEMSHTGARTRFDIQKVMFDGDPTVVGVAYSLKHSAQLGGFSYFQESRLHKLTNLQEKMQICLNAYEQSSSYLPETVVVYRVGSGEGDYPQIVNEVNEMKLAARKKKHGYNPKFLVICTQRNSHIRVFPEHINERGKSMEQNVKSGTCVDVPGASHGYEEFILCCQTPLIGTVKPTKYTIIVNDCRWSKNEIMNVTYHLAFAHQVSYAPPAIPNVSYAAQNLAKRGHNNYKTHTKLVDMNDYSYRIKEKHEEIISSEEVDDILMRDFIETVSNDLNAMTINGRNFWA
Regarding B1, the binding entry in assay [1] is “binds”.

B2: SIMR-1 (endogenous, in the HRDE-2::2xTy1::GFP strain) (protein, UniProt O01477 1-691)
chain: MSNEKQQWDDAYCLAEEMHDAGRPFKREELNIADQFICSRFSTIFEYDPYKDTYGFRNQELTHAIPVKSKCRHISDVDILELKKNTANADIRFPSYLNICPVYAMHPFTVLAFDLSKPVPMGMNASMENAAPNMKSPTEAEITPGTIYIFKHRDNKCYRCVILFEDGDNNVSDADRKYMVAFLDTPQVVSVKLKTLFHLGKFTIESYPCALYCCRAVGILEIRKDFGADLNGQINEFYKDKVKRKSGVHALIYKKDDRGDKLIFDCPSILGTSMTMALEIKDVIGHRSVAENDPTALSYDELVSKQLPTVDIDDHNSSVVLDLEESVIAQELGSTNGADCPCNNDNIDDFMQSQRQNPLDNNRDNWDRINESRSSMQSFAINQSQAITANPTPQPTFDESSGEVQTIPESINNLALNGRYLEDGRGTEEIREERSVESRQIGNQVVSQASCNYLEARQNSTQTANAESVCAIISESHAALPTDIQVIPSQHVLNENNHTVLPSVAPIIRNATGHSHIFGRQIPSPAFRRESLSSGNSIQVATFAATTGPCGSNTSRPTAQNTANSSINQDMSISNSSTNARLITIAQDNLNDTENWPNSEREQSATEMESGAEATTNSAVDEFAQVSDDMKGLADSMINFLRLTANSNNQDAFKANIFAMELISTKIPNQLTKRFFTLKIAEAKSLAEGFN
For the molecule B2, in assay [2], the binding result is “no binding”.

B3: HRDE-2::2xTy1::GFP (natural protein, C. elegans, UniProt Q22058 1-305, looked up)
chain: MSQNSDTFDSGLQMEVHKMAEADNSSVQQKFDAIRDYIGRKETTIILCEHDDSRKIKLTLNKQRMESSMFLTEMPDGGIQEKTKFHRNGLAVCSYNAFDEVDLPLADSYIFYGLPSNVEAFPRMLHGIEKSAHKENKIVFIDIVVSILEKIQIKVVSFELYNRKCTVPTWVAELVITYCAPIEEQQQRIEEIRRTRASVPVAISDAANGSAEMVPSNTTGSSGSPMSTAPVPAAKKEKVQYESIRQIRPNAQGRYFVPARMINMDIEMSNDEYSPDESENDENEYDYENAARYDDGYDEGHEYCQ
notes: HRDE-2 (HRDE-2/ENRI-3), C. elegans, tagged in the worm strain; Tag ends are read from the strain notation HRDE-2::2xTy1::GFP; also called HRDE-2/ENRI-3; source: C. elegans strain hrde-2/enri-3(tag1660[hrde-2/enri-3::2xTy1::GFP]), adult animals, in lysate; not shown: 2xTy1, C-terminal, kept; GFP, C-terminal, kept
For B3, the binding entry in assay [1] is reported as “no binding”; in assay [3], “binds”.

B4: HRDE-1 (endogenous, in the HRDE-2::2xTy1::GFP strain) (protein, UniProt Q09249 1-1032)
chain: MADLLDKIMGSSSSNRIPKRDNRMNQDKDEPTSKRSAPMFSTPKSTTPIGRDSFATMDTMNVQMNMFPVDIKDMPHKIQRFQVDVIVCSSNGKQINANLGVLAAKGDVNSHNRRLAQYYIMRTVHDKLLVKFSGKSHHFLAYDCAATLYLPEGVYTGDDQEEVTLTIDDFPKEEWKFVSKLSRRKDDSYLVVLKPAGFVYTQGEVAQEEANRMELTRIIEIVTSQKLNNEDYLQFGNATFPRLSPPHSEPDAISEIRSGFAKVSRLSQNGGGKAFMTVDTKISPFYKDTSVIKFSSNKLSEMKGGGGGRGGYGRSDSRDSRGGYRGGRSDSRDFRGVYGNRGGNDRYRDESRGRRDMYDSRRDSGSSNGADYSPSDAAELEHAFGERGNTKRCIEEALKGLDVECTHLKGNLIRVSSIAENNAENTSFMMKDDKGEREVTVAEYFLLQYNIKLKYPRLPLVVSKRFKHESFFPMELLRIAPGQRIKVNKMSPTVQSAMTGRNASMPQHHVKLVQDILRDNLKLEQNKYMDAFGIKLMSTEPIQMTAKLLPPAQIKFKGQTYMPDMSRPAFRTQDKFVEPARIRKIGIVVFDNCIQMRQAEDFCDKLSNFCRDNGITVEKDSRDWSIRELNSSDSVAIQNLMKKWLDDRVDILVGIAREKKPDVHDILKYFEESIGLQTIQLCQQTVDKMMGGQGGRQTIDNVMRKFNLKCGGTNFFVEIPNAVRGKAVCSNNETLRKKLLEHVQFIGFEISHGASRTLFDRSRSQMDGEPSVVGVSYSLTNSTQLGGFTYLQTQKEYKLQKLDEFFPKCVRSYKEHSKTLPTRIVIYRVGAGEGNFNRVKEEVEEMRRTFDKIQPGYRPHLVVIIAQRASHARVFPSCISGNRATDQNIPSGTCVENVLTSYGYDEFILSSQTPLIGTVRPCKYTILVNDAKWSKNELMHLTYFRAFGHQVSYQPPSVPDVLYAAENLAKRGRNNYKIHQRYVNLQAVENRIIKDHSELINEDMREELAAAIVDEMSVAMNGMTIPKRNFWA
B4: in assay [2], the binding entry was “binds”.
